This passage reports binding results from article PMC6226434.

The chains behind the UniProt entries cited, without tags or fusion partners. Where a name states a change or a piece, a line headed by the entry shows the natural chain unless it says otherwise.
UniProt P24530: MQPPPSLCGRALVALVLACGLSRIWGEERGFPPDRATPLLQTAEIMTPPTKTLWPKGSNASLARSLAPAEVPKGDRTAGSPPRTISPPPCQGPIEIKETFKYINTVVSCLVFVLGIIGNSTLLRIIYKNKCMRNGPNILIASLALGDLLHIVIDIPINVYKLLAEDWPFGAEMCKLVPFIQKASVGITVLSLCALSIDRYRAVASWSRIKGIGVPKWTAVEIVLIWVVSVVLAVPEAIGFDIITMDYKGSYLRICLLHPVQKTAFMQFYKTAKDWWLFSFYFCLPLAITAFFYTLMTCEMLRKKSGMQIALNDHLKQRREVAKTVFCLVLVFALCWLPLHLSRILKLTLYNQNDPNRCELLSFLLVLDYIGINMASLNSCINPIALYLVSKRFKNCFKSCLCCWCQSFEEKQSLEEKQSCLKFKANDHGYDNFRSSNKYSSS
UniProt P49407: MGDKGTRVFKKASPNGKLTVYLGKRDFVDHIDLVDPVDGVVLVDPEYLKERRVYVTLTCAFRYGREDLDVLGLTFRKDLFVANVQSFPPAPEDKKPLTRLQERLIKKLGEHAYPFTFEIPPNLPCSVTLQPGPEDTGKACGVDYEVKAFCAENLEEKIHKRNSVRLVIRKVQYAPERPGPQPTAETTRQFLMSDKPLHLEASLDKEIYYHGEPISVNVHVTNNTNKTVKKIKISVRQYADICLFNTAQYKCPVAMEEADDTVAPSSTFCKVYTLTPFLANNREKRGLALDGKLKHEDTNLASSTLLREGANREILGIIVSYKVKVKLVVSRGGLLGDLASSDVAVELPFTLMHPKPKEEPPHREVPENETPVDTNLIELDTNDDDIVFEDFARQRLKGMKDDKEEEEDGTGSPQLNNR

No constants are given. Whether binding was seen depends on the method and setting. In cells and extracts the contact can be indirect. A result given as binding can be weak or reduced; the word gives no strength.

For this test, the target named is ETB-Y5 with SmBiT at the C-terminus (thermostabilized human ETB receptor) (human) (UniProt P24530). The test can be described thus: split reporter; NanoBiT β-arrestin recruitment: ETR-SmBiT and LgBiT-βarr1 co-expressed in HEK293A cells; luminescence after addition of ET-1, ET-3 or IRL1620, room temperature, fold change over 5-10 min. For orientation: Recruitment of arrestin is a read-out of receptor activation apart from second messengers.

On to “internalization-defective LgBiT-beta-arrestin1 (R393E, R395E) (from UniProt P49407 1-418)”, for which the binding result is “binds”.
